Results are given in words; binding and its absence hold for the method and conditions named. Binding seen in cells or lysates may run through a third protein. Some results given as binding are weak or reduced against the parent protein; the word gives no strength.
Legend:
[1] = target: GFP-Set1^WT (Drosophila melanogaster) (UniProt Q5LJZ2); experiment: co-IP; GFP-IP with anti-GFP antibody from ovaries without crosslinking treatment; immunoblot
[2] = target: GFP-Set1^E1613K (Drosophila melanogaster) (UniProt Q5LJZ2); experiment: as above
[3] = target: GFP-Set1^WT (Drosophila melanogaster) (UniProt Q5LJZ2); experiment: co-IP; GFP-IP with anti-GFP magnetic beads from ovary lysate after crosslinking with 0.1% paraformaldehyde for 10 min at RT; 20 mM Tris-HCl pH 7.5, 135 mM NaCl, 1.5 mM MgCl2, 10% glycerol, 0.2% Triton X-100; 1 h at 4 C; immunoblot
[4] = target: GFP-Set1^E1613K (Drosophila melanogaster) (UniProt Q5LJZ2); experiment: as above

Sequences of proteins named here, by UniProt entry; tags and fusion partners are left off. A change or cut given only in a name is not applied to a line headed by its entry.
UniProt Q5LJZ2: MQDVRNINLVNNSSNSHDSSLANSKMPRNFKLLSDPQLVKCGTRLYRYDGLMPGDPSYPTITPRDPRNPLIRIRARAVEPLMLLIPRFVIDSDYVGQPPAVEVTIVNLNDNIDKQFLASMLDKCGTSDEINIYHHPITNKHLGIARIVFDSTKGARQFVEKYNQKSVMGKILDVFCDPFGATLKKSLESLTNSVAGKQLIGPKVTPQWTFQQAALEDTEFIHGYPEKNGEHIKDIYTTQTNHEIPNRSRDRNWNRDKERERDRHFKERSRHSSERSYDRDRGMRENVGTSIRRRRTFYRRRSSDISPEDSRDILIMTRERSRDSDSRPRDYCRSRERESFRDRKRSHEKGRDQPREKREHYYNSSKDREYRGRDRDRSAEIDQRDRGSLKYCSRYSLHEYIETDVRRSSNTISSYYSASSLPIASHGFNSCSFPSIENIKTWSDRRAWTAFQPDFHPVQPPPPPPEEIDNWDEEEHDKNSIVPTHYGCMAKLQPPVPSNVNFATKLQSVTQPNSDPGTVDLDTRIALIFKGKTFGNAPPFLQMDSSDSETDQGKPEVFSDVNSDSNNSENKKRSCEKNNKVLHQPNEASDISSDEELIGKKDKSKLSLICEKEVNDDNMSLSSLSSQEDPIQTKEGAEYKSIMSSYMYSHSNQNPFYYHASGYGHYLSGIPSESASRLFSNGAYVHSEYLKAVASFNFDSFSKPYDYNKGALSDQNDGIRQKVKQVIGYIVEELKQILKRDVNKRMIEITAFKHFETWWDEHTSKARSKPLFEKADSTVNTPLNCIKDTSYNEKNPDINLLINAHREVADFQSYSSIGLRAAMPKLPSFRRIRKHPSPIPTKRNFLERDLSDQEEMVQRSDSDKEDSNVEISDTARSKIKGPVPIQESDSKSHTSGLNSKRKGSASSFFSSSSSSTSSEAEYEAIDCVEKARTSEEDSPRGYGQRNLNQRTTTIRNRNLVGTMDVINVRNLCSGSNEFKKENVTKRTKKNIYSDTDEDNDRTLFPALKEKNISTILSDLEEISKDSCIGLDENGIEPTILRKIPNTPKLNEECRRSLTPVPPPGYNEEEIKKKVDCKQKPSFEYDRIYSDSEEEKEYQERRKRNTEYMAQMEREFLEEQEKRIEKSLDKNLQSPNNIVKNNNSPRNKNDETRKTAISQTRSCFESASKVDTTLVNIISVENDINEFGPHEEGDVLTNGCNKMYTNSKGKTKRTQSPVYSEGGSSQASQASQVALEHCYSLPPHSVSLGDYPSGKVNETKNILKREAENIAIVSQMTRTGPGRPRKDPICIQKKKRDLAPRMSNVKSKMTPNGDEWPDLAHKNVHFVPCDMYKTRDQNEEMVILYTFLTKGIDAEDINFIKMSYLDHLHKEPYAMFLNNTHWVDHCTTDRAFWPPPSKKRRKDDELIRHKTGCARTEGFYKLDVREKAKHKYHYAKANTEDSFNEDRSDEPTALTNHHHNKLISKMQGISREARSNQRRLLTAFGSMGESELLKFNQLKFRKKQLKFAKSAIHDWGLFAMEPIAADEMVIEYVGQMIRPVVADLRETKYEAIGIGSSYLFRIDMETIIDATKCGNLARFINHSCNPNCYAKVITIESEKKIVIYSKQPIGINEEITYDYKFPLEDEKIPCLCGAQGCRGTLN

binding [3]: binds weakly
binding [4]: binds weakly
B1: Piwi (protein, UniProt Q9VKM1 1-843)
chain: MADDQGRGRRRPLNEDDSSTSRGSGDGPRVKVFRGSSSGDPRADPRIEASRERRALEEAPRREGGPTERKPWGDQYDYLNTRPAELVSKKGTDGVPVMLQTNFFRLKTKPEWRIVHYHVEFEPSIENPRVRMGVLSNHANLLGSGYLFDGLQLFTTRKFEQEITVLSGKSKLDIEYKISIKFVGFISCAEPRFLQVLNLILRRSMKGLNLELVGRNLFDPRAKIEIREFKMELWPGYETSIRQHEKDILLGTEITHKVMRTETIYDIMRRCSHNPARHQDEVRVNVLDLIVLTDYNNRTYRINDVDFGQTPKSTFSCKGRDISFVEYYLTKYNIRIRDHNQPLLISKNRDKALKTNASELVVLIPELCRVTGLNAEMRSNFQLMRAMSSYTRMNPKQRTDRLRAFNHRLQNTPESVKVLRDWNMELDKNVTEVQGRIIGQQNIVFHNGKVPAGENADWQRHFRDQRMLTTPSDGLDRWAVIAPQRNSHELRTLLDSLYRAASGMGLRIRSPQEFIIYDDRTGTYVRAMDDCVRSDPKLILCLVPNDNAERYSSIKKRGYVDRAVPTQVVTLKTTKNRSLMSIATKIAIQLNCKLGYTPWMIELPLSGLMTIGFDIAKSTRDRKRAYGALIASMDLQQNSTYFSTVTECSAFDVLANTLWPMIAKALRQYQHEHRKLPSRIVFYRDGVSSGSLKQLFEFEVKDIIEKLKTEYARVQLSPPQLAYIVVTRSMNTRFFLNGQNPPPGTIVDDVITLPERYDFYLVSQQVRQGTVSPTSYNVLYSSMGLSPEKMQKLTYKMCHLYYNWSGTTRVPAVCQYAKKLATLVGTNLHSIPQNALEKKFYYL
binding [1]: no binding (condition: without crosslinking treatment)
binding [2]: no binding (condition: without crosslinking treatment)
